# Assay results taken from PubChem BioAssay AID328 (DTP/NCI, 2004).
# The list does not hold the whole screen: it gathers tests that were run many times, whatever their T/C, doses with no T/C, and many T/C values between a quarter and a half above the control. Other doses and runs of a compound stand elsewhere. T/C: endpoint of the treated group in % of that of the vehicle group. Some doses have a count of surviving animals in place of a T/C: the source files T/C as zero there, which appears to mark a toxic dose or a test without result, not a measured value. Some survivor counts are full or nearly so, which does not show that the dose was tolerated: the source hardly ever lists a survival T/C far under the control, and the zero likely stands for such cases as well. Survivors were counted at the toxicity check, usually on the fifth day, unless a day is given; later deaths do not show. Schedule codes are those of the source, taken here to give the interval after Q, in days (D) or hours (H), and the number of doses after X. Where survival is the endpoint, this PubChem deposit counts one and a half times the control or more as active, and values a quarter to a half above the control carry no call in these data; other NCI protocols may use other cut-offs. Some T/C values carry the count of animals alive at the toxicity check (mostly the fifth day); where none is given, no animal had died by that day.
# System: BDF1 mice, P388 leukemia ip, median survival T/C
# Test: NCI In Vivo Anticancer Drug Screen. Data for tumor model P388 Leukemia (intraperitoneal) in B6D2F1 (BDF1) mice
# Conditions: T/C endpoint: median survival time, higher T/C = longer survival
# Outline: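 Compound-treated tumour-bearing mice were compared with vehicle-treated controls. Survival was recorded, and the value is the treated-group measurement divided by the control-group measurement (T/C).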
# [1] = dose: 400.0 mg/kg/injection, schedule: Q04DX003 (ip), vehicle: Klucel (hydroxypropylcellulose) (HPC)
# [2] = dose: 200.0 mg/kg/injection, schedule: Q01DX009 (ip), vehicle: Klucel (hydroxypropylcellulose) (HPC)
# [3] = dose: 0.75 mg/kg/injection, schedule: Q01DX009 (ip), vehicle: saline with Tween-80
# [4] = dose: 3.0 mg/kg/injection, schedule: Q01DX009 (ip), vehicle: saline with Tween-80
# [5] = dose: 25.0 mg/kg/injection, schedule: Q01DX009 (ip), vehicle: saline with Tween-80
# [6] = dose: 200.0 mg/kg/injection, schedule: Q01DX009 (ip), vehicle: saline
# [7] = dose: 50.0 mg/kg/injection, schedule: Q01DX009 (ip), vehicle: saline
# [8] = dose: 75.0 mg/kg/injection, schedule: Q01DX009 (ip), vehicle: saline
structure (smiles),measurement,setting,value
ClC(Cl)(Cl)c1cccc(C(Cl)(Cl)Cl)c1,T/C,[1],135 % of control
same,survivor count,[1],1 of 6
same,survivor count,"dose: 600.0 mg/kg/injection, schedule: Q04DX003 (ip), vehicle: Klucel (hydroxypropylcellulose) (HPC)",1 of 6
O=C(O)Cc1ccc(C2CCCCC2)cc1,survivor count,[2],4 of 6
O=c1nc(Oc2ccccc2)nc2c3ccccc3ccn12,T/C,"dose: 50.0 mg/kg/injection, schedule: Q01DX009 (ip), vehicle: saline with Tween-80",128 % of control
CCC[CH2][Sn]1([CH2]CCC)[O]OC(c2ccc(C)cc2)[O]1 (stereo not given),T/C,[3],126 % of control
same,survivor count,[4],6 of 6
same,T/C,"dose: 3.5 mg/kg/injection, schedule: Q01DX009 (ip), vehicle: saline with Tween-80",130 % of control
same,survivor count,"dose: 6.25 mg/kg/injection, schedule: Q01DX009 (ip), vehicle: saline with Tween-80",3 of 6
same,survivor count,"dose: 8.0 mg/kg/injection, schedule: Q01DX009 (ip), vehicle: saline with Tween-80",4 of 6
same,survivor count,"dose: 12.0 mg/kg/injection, schedule: Q01DX009 (ip), vehicle: saline with Tween-80",1 of 6
same,survivor count,"dose: 12.5 mg/kg/injection, schedule: Q01DX009 (ip), vehicle: saline with Tween-80",0 of 6
same,survivor count,[5],0 of 6
O=[N+]([O-])c1ccc(N(CCO)CCO)c2c1no[n+]2[O-],T/C,"dose: 16.0 mg/kg/injection, schedule: Q04DX003 (ip), vehicle: saline with Tween-80",140 % of control
S=C(NCCNC(=S)[S][Sn]([c]1ccccc1)([c]1ccccc1)[c]1ccccc1)[S][Sn]([c]1ccccc1)([c]1ccccc1)[c]1ccccc1,T/C,"dose: 11.3 mg/kg/injection, schedule: Q01DX009 (ip), vehicle: saline with Tween-80",132 % of control
same,T/C,[5],136 % of control
same,survivor count,"dose: 100.0 mg/kg/injection, schedule: Q01DX009 (ip), vehicle: saline with Tween-80",4 of 6
CC1(C)N=C(N)N=C(N)N1c1cccc(Cl)c1,T/C,"dose: 4.4 mg/kg/injection, schedule: Q04DX003 (ip), vehicle: saline",127 % of control
same,T/C,"dose: 6.6 mg/kg/injection, schedule: Q04DX003 (ip), vehicle: saline",127 % of control
same,T/C,"dose: 16.0 mg/kg/injection, schedule: Q04DX003 (ip), vehicle: saline",136 % of control
same,T/C,"dose: 24.75 mg/kg/injection, schedule: Q04DX003 (ip), vehicle: saline",140 % of control
same,survivor count,"dose: 75.0 mg/kg/injection, schedule: Q04DX003 (ip), vehicle: saline",4 of 6
same,survivor count,"dose: 150.0 mg/kg/injection, schedule: Q04DX003 (ip), vehicle: saline",0 of 6
CC(=O)O[C@@H]1[C@H]2O[C@H]2[C@H]2O[C@@]2(COC(=O)c2ccccc2)[C@H]1OC(C)=O,survivor count,"dose: 50.0 mg/kg/injection, schedule: Q01DX010 (ip), vehicle: steroid suspending solution",6 of 6
O=C(CCCc1ccc(N(CCCl)CCCl)cc1)Nc1ncccn1,T/C,"dose: 5.0 mg/kg/injection, schedule: Q01DX009 (ip), vehicle: Klucel (hydroxypropylcellulose) (HPC)",126 % of control [5 of 6 alive]
same,T/C,"dose: 12.0 mg/kg/injection, schedule: Q01DX009 (ip), vehicle: Klucel (hydroxypropylcellulose) (HPC)",128 % of control
same,T/C,"dose: 12.5 mg/kg/injection, schedule: Q01DX009 (ip), vehicle: Klucel (hydroxypropylcellulose) (HPC)",138 % of control
same,survivor count,"dose: 50.0 mg/kg/injection, schedule: Q01DX009 (ip), vehicle: Klucel (hydroxypropylcellulose) (HPC)",0 of 6
CCCCCC[C@@H](O)[C@@H]1C2=C(C[C@H]([C@H](O)[C@@H]3CC=CC(=O)O3)CC3=C(C(=O)OC3=O)[C@@H]1O)C(=O)OC2=O,survivor count,"dose: 1.0 mg/kg/injection, schedule: Q01DX009 (ip), vehicle: saline",0 of 6
same,survivor count,"dose: 2.2 mg/kg/injection, schedule: Q01DX009 (ip), vehicle: saline",0 of 6
same,survivor count,"dose: 3.3 mg/kg/injection, schedule: Q01DX009 (ip), vehicle: saline",0 of 6
Nc1nc(-c2cccnc2)cc2ccccc12,survivor count,"dose: 50.0 mg/kg/injection, schedule: Q04DX003 (ip), vehicle: saline with Tween-80",1 of 6
CCCCN(C(C)(C)C(SSSC(c1ccc(Cl)cc1)C(C)(C)N(CCCC)S(C)(=O)=O)c1ccc(Cl)cc1)S(C)(=O)=O (stereo not given),survivor count,"dose: 100.0 mg/kg/injection, schedule: Q04DX003 (ip), vehicle: saline with Tween-80",3 of 6
O=[N+]([O-])c1ccc2c(N=Nc3c(O)ccc4ccccc34)c(O)cc(S(=O)(=O)O)c2c1,T/C,"dose: 200.0 mg/kg/injection, schedule: Q01DX009 (ip), vehicle: saline with Tween-80",127 % of control
COc1cc(C=Nc2cccc(Br)c2)ccc1N(CCCl)CCCl,T/C,"dose: 18.7 mg/kg/injection, schedule: Q04DX003 (ip), vehicle: saline with Tween-80",145 % of control
same,survivor count,"dose: 50.0 mg/kg/injection, schedule: Q04DX003 (ip), vehicle: other",3 of 6
same,survivor count,"dose: 100.0 mg/kg/injection, schedule: Q04DX003 (ip), vehicle: other",0 of 6
same,survivor count,"dose: 200.0 mg/kg/injection, schedule: Q01DX009 (ip), vehicle: saline sonified",5 of 6
same,survivor count,"dose: 400.0 mg/kg/injection, schedule: Q01DX009 (ip), vehicle: saline sonified",1 of 6
O=C(NNC1CCN(Cc2ccccc2)CC1)c1ccccc1,T/C,"dose: 2.5 mg/kg/injection, schedule: Q04DX003 (ip), vehicle: saline with Tween-80",129 % of control
Cc1nc2c(=O)[nH]n(C)c2nc1C,survivor count,"dose: 400.0 mg/kg/injection, schedule: Q01DX009 (ip), vehicle: saline with Tween-80",5 of 6
C[N+](C)(CCCCOCCCC[N+](C)(C)Cc1ccc([N+](=O)[O-])cc1)Cc1ccc([N+](=O)[O-])cc1,survivor count,[3],6 of 6
same,survivor count,[4],4 of 6
same,survivor count,"dose: 6.0 mg/kg/injection, schedule: Q04DX003 (ip), vehicle: saline with Tween-80",0 of 6
O=C1C(=O)c2ccccc2-c2ccccc21,survivor count,"dose: 12.5 mg/kg/injection, schedule: Q01DX009 (ip), vehicle: carboxymethylcellulose (CMC)",2 of 6
same,survivor count,"dose: 25.0 mg/kg/injection, schedule: Q01DX009 (ip), vehicle: carboxymethylcellulose (CMC)",1 of 6
same,survivor count,"dose: 50.0 mg/kg/injection, schedule: Q01DX009 (ip), vehicle: carboxymethylcellulose (CMC)",4 of 6
same,survivor count,"dose: 100.0 mg/kg/injection, schedule: Q01DX009 (ip), vehicle: carboxymethylcellulose (CMC)",4 of 6
CC1=CCC2(C)C(=O)C1CC1=C2CC(C)(C)CC1=O (stereo not given),survivor count,[6],6 of 6
O=[N+]([O-])c1cc([N+](=O)[O-])c(NN(c2ccc(Cl)cc2)c2ccc(Cl)cc2)c([N+](=O)[O-])c1,survivor count,[2],4 of 6
same,survivor count,[1],2 of 6
COc1ccc(C[C@@H]2NC[C@@H](O)[C@@H]2OC(C)=O)cc1,survivor count,"dose: 22.0 mg/kg/injection, schedule: Q01DX009 (ip), vehicle: saline",3 of 3
same,survivor count,"dose: 33.0 mg/kg/injection, schedule: Q01DX009 (ip), vehicle: saline",3 of 3
same,T/C,[7],128 % of control
same,survivor count,[7],3 of 3
same,T/C,[8],132 % of control
same,survivor count,[8],3 of 3
same,T/C,[6],128 % of control
CN(C)CC(C(=O)c1ccc(Br)cc1)C(Br)c1ccccc1 (stereo not given),survivor count,"dose: 35.0 mg/kg/injection, schedule: Q01DX009 (ip), vehicle: saline",1 of 6
same,survivor count,"dose: 95.0 mg/kg/injection, schedule: Q04DX003 (ip), vehicle: saline",0 of 6
same,survivor count,"dose: 145.0 mg/kg/injection, schedule: Q04DX003 (ip), vehicle: saline",0 of 6
same,survivor count,"dose: 215.0 mg/kg/injection, schedule: Q04DX003 (ip), vehicle: saline",0 of 6
CC(=O)OC1CC2(O)C(CCC3(C)C(c4ccc(=O)oc4)CCC32O)C2(C)CCC(OC3OC(CO)C(O)C(O)C3O)C=C12 (stereo not given),survivor count,"dose: 250.0 micrograms/kg/injection, schedule: Q01DX010 (ip), vehicle: saline",6 of 6
same,survivor count,"dose: 500.0 micrograms/kg/injection, schedule: Q01DX010 (ip), vehicle: saline",6 of 6
N#Cc1c[nH]n2c(=S)ncnc12,survivor count,"dose: 400.0 mg/kg/injection, schedule: Q04DX003 (ip), vehicle: saline with Tween-80",4 of 6
